Results: publication doi:10.1101/2022.03.04.482944
These are yes or no findings as the source states them, for the method shown.

Protein sequences, listed by entry. Tags and fused reporters are not part of them. Residues count along the entry.
UniProt O00238, residues 14-502: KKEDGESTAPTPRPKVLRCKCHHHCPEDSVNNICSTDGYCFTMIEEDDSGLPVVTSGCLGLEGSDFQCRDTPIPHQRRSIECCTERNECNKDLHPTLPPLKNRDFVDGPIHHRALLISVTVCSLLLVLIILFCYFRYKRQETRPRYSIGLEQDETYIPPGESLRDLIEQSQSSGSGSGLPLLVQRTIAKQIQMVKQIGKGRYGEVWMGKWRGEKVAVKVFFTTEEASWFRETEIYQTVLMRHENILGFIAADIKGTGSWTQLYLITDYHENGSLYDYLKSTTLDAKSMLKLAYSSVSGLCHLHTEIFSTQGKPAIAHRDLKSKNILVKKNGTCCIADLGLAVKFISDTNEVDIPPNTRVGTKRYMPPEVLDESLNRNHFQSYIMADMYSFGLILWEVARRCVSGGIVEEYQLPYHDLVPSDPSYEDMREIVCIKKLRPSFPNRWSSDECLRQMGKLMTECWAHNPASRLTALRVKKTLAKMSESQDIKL
UniProt P37023, residues 22-503: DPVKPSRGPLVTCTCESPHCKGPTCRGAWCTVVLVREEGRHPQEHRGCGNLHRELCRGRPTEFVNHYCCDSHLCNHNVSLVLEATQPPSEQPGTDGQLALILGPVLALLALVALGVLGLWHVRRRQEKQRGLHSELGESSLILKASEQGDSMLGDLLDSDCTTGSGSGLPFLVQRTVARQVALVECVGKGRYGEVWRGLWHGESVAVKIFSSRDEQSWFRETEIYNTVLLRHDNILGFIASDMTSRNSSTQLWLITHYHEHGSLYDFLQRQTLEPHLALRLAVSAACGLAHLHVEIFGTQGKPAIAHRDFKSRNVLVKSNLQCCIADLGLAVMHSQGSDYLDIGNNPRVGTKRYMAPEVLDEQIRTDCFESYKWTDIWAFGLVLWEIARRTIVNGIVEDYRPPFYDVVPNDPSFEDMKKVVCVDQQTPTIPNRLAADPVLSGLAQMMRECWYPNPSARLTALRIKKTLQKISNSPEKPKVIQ
UniProt P37173, residues 23-567: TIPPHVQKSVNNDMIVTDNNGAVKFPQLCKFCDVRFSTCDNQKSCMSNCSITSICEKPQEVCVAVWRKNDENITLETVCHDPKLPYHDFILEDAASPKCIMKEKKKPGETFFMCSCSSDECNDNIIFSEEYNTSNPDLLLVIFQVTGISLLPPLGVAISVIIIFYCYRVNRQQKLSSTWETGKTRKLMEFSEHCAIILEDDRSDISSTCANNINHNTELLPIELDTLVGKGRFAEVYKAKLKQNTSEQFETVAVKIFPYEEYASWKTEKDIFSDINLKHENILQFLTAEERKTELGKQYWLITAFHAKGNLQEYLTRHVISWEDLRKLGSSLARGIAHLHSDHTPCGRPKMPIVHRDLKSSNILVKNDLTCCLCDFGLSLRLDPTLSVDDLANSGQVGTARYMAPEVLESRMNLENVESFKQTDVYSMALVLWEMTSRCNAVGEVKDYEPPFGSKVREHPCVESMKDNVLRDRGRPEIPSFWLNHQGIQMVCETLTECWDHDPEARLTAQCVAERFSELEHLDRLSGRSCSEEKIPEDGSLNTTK
UniProt P08476, residues 311-426: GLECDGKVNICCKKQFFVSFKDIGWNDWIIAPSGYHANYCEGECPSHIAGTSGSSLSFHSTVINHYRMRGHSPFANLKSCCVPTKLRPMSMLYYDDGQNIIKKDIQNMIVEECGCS

What was measured:
Assay in all cases: Ligand Surface Binding Assay
ALK6-Halo (human) = ALK6-Halo (human) (UniProt O00238)
ALK2-R206H-Halo (human) = target: T1, ALK2-R206H-Halo (human) (UniProt Q04771)
T1 sequence: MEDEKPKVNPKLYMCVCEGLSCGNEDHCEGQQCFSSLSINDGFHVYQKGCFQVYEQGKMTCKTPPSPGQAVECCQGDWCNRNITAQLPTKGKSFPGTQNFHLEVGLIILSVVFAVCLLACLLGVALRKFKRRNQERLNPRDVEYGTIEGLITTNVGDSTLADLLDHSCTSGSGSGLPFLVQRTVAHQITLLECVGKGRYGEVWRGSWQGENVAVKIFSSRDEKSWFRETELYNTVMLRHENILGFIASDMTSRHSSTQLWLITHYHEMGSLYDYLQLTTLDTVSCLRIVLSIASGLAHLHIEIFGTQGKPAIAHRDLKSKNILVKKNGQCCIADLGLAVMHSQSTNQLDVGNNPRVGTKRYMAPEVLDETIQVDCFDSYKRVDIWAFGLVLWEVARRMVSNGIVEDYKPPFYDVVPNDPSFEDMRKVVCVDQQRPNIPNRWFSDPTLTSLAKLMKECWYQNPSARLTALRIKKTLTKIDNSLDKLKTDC

[1] = target: T2, ALK7-Halo (rat (printed as rALK7)) (UniProt P70539)
T2 sequence: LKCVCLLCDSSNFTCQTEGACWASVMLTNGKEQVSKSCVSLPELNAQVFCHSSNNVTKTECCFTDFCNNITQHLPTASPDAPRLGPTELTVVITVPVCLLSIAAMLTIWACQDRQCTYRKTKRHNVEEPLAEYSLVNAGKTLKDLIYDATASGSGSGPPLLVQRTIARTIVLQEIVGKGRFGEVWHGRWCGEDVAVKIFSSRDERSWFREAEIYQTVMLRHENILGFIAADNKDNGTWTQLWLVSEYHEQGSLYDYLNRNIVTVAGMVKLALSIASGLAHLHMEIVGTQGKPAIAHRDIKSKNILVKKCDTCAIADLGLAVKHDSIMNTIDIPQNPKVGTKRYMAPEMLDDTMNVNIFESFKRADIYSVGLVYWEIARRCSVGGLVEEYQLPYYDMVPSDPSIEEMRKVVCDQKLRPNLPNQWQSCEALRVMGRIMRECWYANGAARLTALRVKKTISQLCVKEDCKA

ALK1-Halo (human) = ALK1-Halo (human) (UniProt P37023)
TGFBR2-Halo (human) = TGFBR2-Halo (human) (UniProt P37173)

Measured: binding

Activin A-Cy5 (from UniProt P08476 311-426) (ligand)
no binding (tested: 2 nM): all assays above
